From US12070464B2, “Methods of treating myeloproliferative disorders” (priority 2019, dated 2024)
For at least one compound, name, drawing or mass did not settle the structure.

How the values were obtained:
[1] = tested on: patients with refractory or intolerant advanced myelofibrosis; experiment: Phase 2 study, Arms 1 and 2 together (monotherapy or add-on to ruxolitinib); type: in vivo, human; conditions: monotherapy and combination therapy arms; FIGS. 15A-F
Description: (§1) A Phase 2 study of Compound 1 in subjects with myelofibrosis (MF) was conducted. Three treatment arms were studied:
Arm 1=monotherapy with Compound 1 in patients (pts) who are no longer on Rux and are with refractory, intolerant, or ineligible. In this arm patients were further stratified based on transfusion dependence status [transfusion dependent (TD), defined as an average of >2 units per month over 12 wks, or non-TD cohorts]. Primary endpoint: spleen volume response (SVR) for non-TD cohorts or TD to transfusion independence (TI, no transfusion for consecutive 12 wks) conversion for TD cohorts; secondary endpoints: change in total symptom score (TSS) per MFSAF v4.0, patient global impression of change (PGIC), safety and PK; additional endpoints: changes in proinflammatory Ck levels, BM morphology and mutant allele burden.
Arm 2=combination add-on treatment of Compound 1 in patients (pts) who are already being administered Rux. In this arm patients were further stratified based on transfusion dependence status [transfusion dependent (TD), defined as an average of >2 units per month over 12 wks, or non-TD cohorts]. The starting dose of Compound 1 was 125 mg daily on days 1-14 of a 21-day cycle in both arms. […]

[2] = tested on: CD34+ cells isolated from healthy donor bone marrow; experiment: Megakaryocyte differentiation, single agent, 14 days (FACS); type: cell-based; conditions: 3 nM to 500 nM
Description: The effects of Compound 1 on megakaryocyte differentiation and proliferation were evaluated using CD34+ cells isolated from healthy donor bone marrow (data on file). The CD34+cells were grown in megakaryocyte differentiation serum-free stem cell differentiation base medium with a megakaryocyte-driving cytokine cocktail for 14 days with DMSO or Compound 1 at concentrations ranging from 3 nM to 500 nM. The cells were then stained for CD34 (progenitor marker), CD45 (leukocyte marker) and CD41a (mature megakaryocyte marker) and assessed by FACS for viability and marker expression. CD41a expression and cell size were used as markers of megakaryocyte differentiation. […] The shift from high to low CD41a expression began at approximately 50 nM, with pronounced effects observed at 200 to 500 nM, as shown in FIG. 2.

[3] = tested on: CD34+ cells isolated from the bone marrow of two healthy donors; experiment: Megakaryocyte differentiation and proliferation, alone and with ruxolitinib, 10 days (FACS); type: cell-based; conditions: serial dilutions of Compound 1 combined with serial dilutions of ruxolitinib; FIG. 3
From the text: The cells were then harvested for FACS analysis with live/dead stain and gating with CD34 (progenitor marker) and CD41a and CD42b (mature megakaryocyte markers).

[4] = tested on: patients with myelofibrosis; experiment: Initial human clinical data set, four patients (combination and monotherapy arms); type: in vivo
From the text: Two myelofibrosis patients to enroll (Patients 245 and 246) received Compound 1 in combination with ruxolitinib and received 18 treatment cycles (11 months of treatment). The other two patients to enroll (Patients 247 and 248) received 10 cycles of Compound 1 as monotherapy (6 months of treatment). […] One of the patients who was transfusion dependent at study entry became transfusion independent (defined as >12 weeks without the need for a red blood cell (RBC) transfusion. Indeed, 7 months had elapsed since their last transfusion.
All four patients experienced an increase in their hemoglobin levels with multiple treatment cycles with Compound 1. In addition, one of the patients who entered the study with uncontrolled thrombocytosis (baseline platelets were 895×10^9/L) experienced a normalization of their platelet counts within the first month of monotherapy treatment with Compound 1. The patient's platelet counts remained normal for more than 20 weeks. This patient's thrombocytosis was also accompanied by severe headaches requiring multiple hospital admission. Following treatment with Compound 1, however, the patient's headaches were resolved. Brief narratives for all four patients treated for at least 6 months are presented below.
At entry into the study with Compound 1, their spleen volume by MRI was 1404 cc and was 12 cm by palpation. The patient presented with early satiety, night sweats, and dyspnea at the start of the study. […] The lowest spleen volume by MRI was 1144 cc, a 19% reduction, at the 6-month MM. The dose of ruxolitinib was reduced on Cycle 10 to 7.5 mg BID to address decreasing platelet count.
When Patient 246 initiated combination treatment with Compound 1 125 mg QD and ruxolitinib 10 mg BID their spleen volume was 607 cc by MRI and 2 cm by palpation and they required regular transfusions (2 units of RBC every 3-4 weeks).
The patient also presented with uncontrolled thrombocytosis at study entry (platelet count of 895×10^9/L at baseline) despite hydroxyurea. In addition, the patient had experienced persistent and debilitating headaches that required multiple hospital admissions for pain control. Their platelets were normalized after receiving their first two weeks of Compound 1 monotherapy (183 x10^9/L) and have remained within the normal range for the remainder of the time they have been on study (see FIG. 6). Within 2 months on Compound 1 monotherapy, the patient's severe headaches had resolved; their night sweats were less frequent; and a 37% reduction in symptoms was assessed by the Myeloproliferative Neoplasm Symptom (MNS) score. Their ECOG performance score decreased from 2 to 1 after two treatment cycles with CPI-0610 and a 25% decrease in spleen volume (640 cc) was assessed by MRI after 8 treatment cycles, the most recent measurement.
Their constitutional symptoms at study entry included fatigue, early satiety, and difficulty concentrating. […] The patient was reinitiated with a reduced Compound 1 dose of 175 mg at the beginning of Cycle 2, which has been tolerated for the remaining time on study (>6 months). While the patient's spleen has shown minimal change through palpation a spleen volume reduction of 11% (1023 cc) was measured by MRI after 3 months on treatment with Compound 1. Their MNS score improved 19% after 2 months on the 175 mg QD dose and after 6 months of Compound 1 treatment their bone marrow fibrosis grade decreased from MF-2 at baseline to MF-1 based on a local pathologist's assessment.

[5] = tested on: JAK inhibitor treatment naive myelofibrosis patients; type: in vivo, human; conditions: with ruxolitinib
Description: as §1
Arm 3—combination treatment with Compound 1 and Rux in patients (pts) who have not previously been administered a JAK inhibitor, i.e., JAK inhibitor treatment naive. In this arm, key eligibility criteria of included JAKi naive myelofibrosis (MF) patients (pts) with Dynamic International Prognostic Scoring (DIPSS) score int-1 or higher, ECOG performance status ≤2, platelet counts (PLT) ≥100×109/L, peripheral blood blast count <10%, anemia (hemoglobin <10 g/dL), ≥5 cm palpable spleen, ≥2 symptoms measurable (score ≥3) or a total symptom score (c using the MFSAF v4.0. Primary endpoint: spleen volume response (SVR); key secondary endpoints: change in TSS, safety and PK; additional endpoints: changes in proinflammatory cytokine (Ck) levels, BM morphology and mutant allele burden.
The starting dose of Compound 1 was 125 mg given orally, once daily for 2 weeks on/1 week off in a 21-day dosing cycle. Two separate time points for data analysis occurred for at least Arms 1 and 2 and are discussed below: one at approximately 12 weeks of treatment (first assessment of spleen volume by MRI or CT and every 12 weeks thereafter) and another at approximately 24 weeks of treatment (first assessment of bone marrow biopsy and every 24 weeks thereafter). […]

[6] = tested on: ILIO expression in TMD8 ABC-DLBCL cells; experiment: ILIO mRNA expression in TMD8 cells (qRT-PCR); type: cell-based; conditions: 1.6 μM; 6 and 24 hours; vs DMSO; FIG. 1
[7] = tested on: IL6 expression in TMD8 ABC-DLBCL cells; experiment: IL6 mRNA expression in TMD8 cells (qRT-PCR); type: cell-based; conditions: 1.6 μM; 6 and 24 hours; vs DMSO; FIG. 1
[8] = tested on: BET target genes (CCR1, CCR2, IL8, FN1, CSF1R and THBS1); experiment: BET target gene expression in peripheral blood, Phase 1 clinical studies; type: in vivo, human; conditions: changes most consistent for IL8 and CCR1 at 2 hours post treatment, lymphoma patients, Study 0610-01, FIG. 4
[9] = Patient 245, within 4 months, with ruxolitinib

Structure (SMILES): Cc1noc2c1-c1ccccc1C(c1ccc(Cl)cc1)=N[C@H]2CC(N)=O [Compound 1, 2-((4S)-6-(4-chlorophenyl)-1-methyl-4H-benzo[c]isoxazolo[4,5-e]azepin-4-yl)acetamide]
- pro-inflammatory cytokine levels (CRP, IL-8, IL-18) [1]: trend toward normalization within 14 days
- number of cells with high CD41a expression [2]: reduced the number of cells with high CD41a expression in a concentration-dependent manner
- combined effect on megakaryocyte differentiation [3]: additive inhibitory effect
- constitutional symptoms [4, 9]: resolution of early satiety
- liver palpation [4, 9]: no longer palpable
- constitutional symptoms (fatigue and dyspnea) ([4]; Patient 246, with ruxolitinib): clinically meaningful improvement
- severe headaches ([4]; Patient 247, monotherapy, within 2 months): resolved
- bone marrow fibrosis grade ([4]; Patient 248, after 6 months, MF-2 at baseline, local pathologist's assessment): MF-1
- clinical outcome, all four patients ([4]; two patients with ruxolitinib (18 cycles), two monotherapy (10 cycles)): reduction in their constitutional symptoms along with a decrease in spleen volume and an increase in hemoglobin
- proinflammatory cytokine (Ck) levels [5]: reduction of proinflammatory Ck, including IL-18 and CRP, was also observed
- ILIO mRNA transcription [6]: substantially suppressed
- IL6 mRNA transcription [7]: substantially suppressed
- relationship of BET target gene expression to Compound 1 plasma concentration [8]: time- and concentration-dependent relationship
